PubChem BioAssay AID1904 | GNF – 2009

Screen: 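Novel clock parts and modifiers of the cell-autonomous circadian rhythm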 (follow-up of hits)
Cell system: human U2OS osteosarcoma cells stably expressing a destabilised luciferase driven by the Bmal1 promoter
Knock-down reagent: siRNA pair against human genes, 12.5 nM (two siRNAs, 0.5 pmol each, per well)
Timing: about 3 days after transfection, then luminescence recorded for about 4 days
Read-out: 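Period and amplitude fitted from detrended luminescence traces taken every 2 hours; duplicate wells averaged, compared with the screen mean and grouped into phenotype classes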
Call rule: 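Active when retesting with individual siRNAs reproduced the period or amplitude change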
Calls: active = confirmed by single siRNAs; inactive = not confirmed
Only reagents picked out of a larger screen are listed. 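Lists only primary-screen hits; phenotype classes come from fitted traces, and the underlying luminescence values are not given.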 The numbers tell different reagents against one gene apart. Reagent sequences are not shown.

Which result is listed for CRYGD #1?
clock phenotype class: shorter clock period; seen with one siRNA pair in duplicate wells; confirmed with single siRNAs: phenotype not reproduced by individual siRNAs; outcome: inconclusive

What is on record for CRYGD #2?
clock phenotype class: shorter clock period; seen with one siRNA pair in duplicate wells; confirmed with single siRNAs: phenotype not reproduced by individual siRNAs; outcome: inconclusive

What is on record for OR1E1 #1?
clock phenotype class: longer clock period; seen with two independent siRNA pairs for the gene; confirmed with single siRNAs: phenotype reproduced by individual siRNAs; outcome: active

For OR1E1 #2, what does the deposit list?
clock phenotype class: longer clock period; seen with two independent siRNA pairs for the gene; confirmed with single siRNAs: phenotype reproduced by individual siRNAs; outcome: active

For RBL1 #1, what was measured?
clock phenotype class: longer clock period; seen with two independent siRNA pairs for the gene; confirmed with single siRNAs: phenotype reproduced by individual siRNAs; outcome: active

What did the screen give for RBL1 #2?
clock phenotype class: longer clock period; seen with two independent siRNA pairs for the gene; confirmed with single siRNAs: phenotype reproduced by individual siRNAs; outcome: active

For ZBTB20 #1, what was measured?
clock phenotype class: shorter clock period; seen with one siRNA pair in duplicate wells; confirmed with single siRNAs: phenotype not reproduced by individual siRNAs; outcome: inconclusive

For ZBTB20 #2, what was measured?
clock phenotype class: shorter clock period; seen with one siRNA pair in duplicate wells; confirmed with single siRNAs: phenotype not reproduced by individual siRNAs; outcome: inconclusive

With DMAP1 #1, how do the results read?
clock phenotype class: higher rhythm amplitude; seen with two independent siRNA pairs for the gene; confirmed with single siRNAs: phenotype reproduced by individual siRNAs; outcome: active

How did the screen score DMAP1 #2?
clock phenotype class: higher rhythm amplitude; seen with two independent siRNA pairs for the gene; confirmed with single siRNAs: phenotype reproduced by individual siRNAs; outcome: active

Which result is listed for ATF6 #1?
clock phenotype class: shorter clock period; seen with two independent siRNA pairs for the gene; confirmed with single siRNAs: phenotype reproduced by individual siRNAs; outcome: active

What did the screen give for ATF6 #2?
clock phenotype class: shorter clock period; seen with two independent siRNA pairs for the gene; confirmed with single siRNAs: phenotype reproduced by individual siRNAs; outcome: active

With SERPINA12 #1, what does the deposit list?
clock phenotype class: longer clock period; seen with two independent siRNA pairs for the gene; confirmed with single siRNAs: phenotype reproduced by individual siRNAs; outcome: active

What did the screen give for SERPINA12 #2?
clock phenotype class: longer clock period; seen with two independent siRNA pairs for the gene; confirmed with single siRNAs: phenotype reproduced by individual siRNAs; outcome: active

What is on record for C10orf137 #1?
clock phenotype class: longer clock period; seen with two independent siRNA pairs for the gene; confirmed with single siRNAs: phenotype reproduced by individual siRNAs; outcome: active

For C10orf137 #2, what was measured?
clock phenotype class: longer clock period; seen with two independent siRNA pairs for the gene; confirmed with single siRNAs: phenotype reproduced by individual siRNAs; outcome: active

Targets listed so far whose target name starts with O or o:
OR1E1 #1 — clock phenotype class = longer clock period; seen with two independent siRNA pairs for the gene; confirmed with single siRNAs = phenotype reproduced by individual siRNAs; outcome = active
OR1E1 #2 — clock phenotype class = longer clock period; seen with two independent siRNA pairs for the gene; confirmed with single siRNAs = phenotype reproduced by individual siRNAs; outcome = active
